{"source": "PubChem BioAssay AID602196 (INSERM, 2012)", "aim": "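Genes whose knock-down alters cisplatin killing of lung cancer cells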", "system": "human A549 lung cancer cells", "reagents": "siRNA pair against human genes", "timing": "48 h transfection before cisplatin; time from cisplatin to read-out not stated", "challenge": "cisplatin at a dose killing half of control-siRNA cells; exact dose and duration not given", "measurement": "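Shift in cisplatin death relative to control siRNA, from -50 (all cells die) to +50 (no cells die); siRNAs harmful on their own scored 0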", "reading the numbers": "two-siRNA summed score (-2 to +2): higher = both siRNAs protect from cisplatin killing; -2 means both sensitise; mean protection from cisplatin (shift in death): higher = protection from cisplatin killing", "hit rule": "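Each siRNA scores 0 if harmful alone by LDH or WST-1, otherwise +1 if it reduces and -1 if it increases cisplatin killing; a gene is active when both siRNAs agree (sum +2 or -2)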", "calls": "active = both siRNAs shift cisplatin killing the same way; inactive = no consistent shift, or siRNA harmful alone", "note": "This is one part, drawn at random, of about 23,000 reagents. Over the whole deposit, 455 (2%) were called active. 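Active includes both protection and sensitisation; some change values fall well beyond the stated -50 to +50 range.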 Further read-outs or replicates are left out here. Not given: the amount of reagent."}
{"gene": "SPMIP8", "PubChem SID": "SID131518811", "two-siRNA summed score (-2 to +2)": 0, "mean protection from cisplatin (shift in death) (%)": 28.7, "Outcome": "inactive"}
{"gene": "TRAPPC1", "PubChem SID": "SID131501282", "two-siRNA summed score (-2 to +2)": -1, "mean protection from cisplatin (shift in death) (%)": -10.8, "Outcome": "inactive"}
{"gene": "LOC345930", "PubChem SID": "SID131513135", "two-siRNA summed score (-2 to +2)": 0, "mean protection from cisplatin (shift in death) (%)": 6.2, "Outcome": "inactive"}
{"gene": "PRDM12", "PubChem SID": "SID131503466", "two-siRNA summed score (-2 to +2)": 0, "mean protection from cisplatin (shift in death) (%)": -9.8, "Outcome": "inactive"}
{"gene": "LOC389192", "PubChem SID": "SID131509558", "two-siRNA summed score (-2 to +2)": 0, "mean protection from cisplatin (shift in death) (%)": 2.3, "Outcome": "inactive"}
{"gene": "ADCK1", "PubChem SID": "SID131511610", "two-siRNA summed score (-2 to +2)": 0, "mean protection from cisplatin (shift in death) (%)": 4.5, "Outcome": "inactive"}
{"gene": "IL22RA2", "PubChem SID": "SID131502281", "two-siRNA summed score (-2 to +2)": -1, "mean protection from cisplatin (shift in death) (%)": -3.7, "Outcome": "inactive"}
{"gene": "LOC391844", "PubChem SID": "SID131509659", "two-siRNA summed score (-2 to +2)": 0, "mean protection from cisplatin (shift in death) (%)": 2.4, "Outcome": "inactive"}
{"gene": "LOC400600", "PubChem SID": "SID131507896", "two-siRNA summed score (-2 to +2)": 0, "mean protection from cisplatin (shift in death) (%)": 0.4, "Outcome": "inactive"}
{"gene": "SLC7A4", "PubChem SID": "SID131505409", "two-siRNA summed score (-2 to +2)": 0, "mean protection from cisplatin (shift in death) (%)": -3.2, "Outcome": "inactive"}
{"gene": "MAGI1", "PubChem SID": "SID131506052", "two-siRNA summed score (-2 to +2)": 0, "mean protection from cisplatin (shift in death) (%)": -2.1, "Outcome": "inactive"}
{"gene": "FAM120B", "PubChem SID": "SID131505010", "two-siRNA summed score (-2 to +2)": 0, "mean protection from cisplatin (shift in death) (%)": -4, "Outcome": "inactive"}
{"gene": "FLJ35036", "PubChem SID": "SID131516786", "two-siRNA summed score (-2 to +2)": 0, "mean protection from cisplatin (shift in death) (%)": 11.6, "Outcome": "inactive"}

Next part; the last 3 above are carried over.
{"gene": "MAGI1", "PubChem SID": "SID131506052", "two-siRNA summed score (-2 to +2)": 0, "mean protection from cisplatin (shift in death) (%)": -2.1, "Outcome": "inactive"}
{"gene": "FAM120B", "PubChem SID": "SID131505010", "two-siRNA summed score (-2 to +2)": 0, "mean protection from cisplatin (shift in death) (%)": -4, "Outcome": "inactive"}
{"gene": "FLJ35036", "PubChem SID": "SID131516786", "two-siRNA summed score (-2 to +2)": 0, "mean protection from cisplatin (shift in death) (%)": 11.6, "Outcome": "inactive"}
{"gene": "LOC441630", "PubChem SID": "SID131519200", "two-siRNA summed score (-2 to +2)": 1, "mean protection from cisplatin (shift in death) (%)": 3.6, "Outcome": "inactive"}
{"gene": "MIEN1", "PubChem SID": "SID131505804", "two-siRNA summed score (-2 to +2)": 0, "mean protection from cisplatin (shift in death) (%)": -2.5, "Outcome": "inactive"}
{"gene": "LOC340736", "PubChem SID": "SID131519412", "two-siRNA summed score (-2 to +2)": 1, "mean protection from cisplatin (shift in death) (%)": 5.4, "Outcome": "inactive"}
{"gene": "SP6", "PubChem SID": "SID131516892", "two-siRNA summed score (-2 to +2)": 0, "mean protection from cisplatin (shift in death) (%)": 11.9, "Outcome": "inactive"}
{"gene": "LOC219638", "PubChem SID": "SID131522087", "two-siRNA summed score (-2 to +2)": 1, "mean protection from cisplatin (shift in death) (%)": 16.2, "Outcome": "inactive"}
{"gene": "AK9", "PubChem SID": "SID131509951", "two-siRNA summed score (-2 to +2)": 0, "mean protection from cisplatin (shift in death) (%)": 2.7, "Outcome": "inactive"}
{"gene": "AK9", "PubChem SID": "SID131517570", "two-siRNA summed score (-2 to +2)": 0, "mean protection from cisplatin (shift in death) (%)": 13.9, "Outcome": "inactive"}
{"gene": "AK9", "PubChem SID": "SID131520655", "two-siRNA summed score (-2 to +2)": 1, "mean protection from cisplatin (shift in death) (%)": 10.7, "Outcome": "inactive"}
{"gene": "LOC392793", "PubChem SID": "SID131508152", "two-siRNA summed score (-2 to +2)": 0, "mean protection from cisplatin (shift in death) (%)": 0.7, "Outcome": "inactive"}
{"gene": "REST", "PubChem SID": "SID131522522", "two-siRNA summed score (-2 to +2)": 1, "mean protection from cisplatin (shift in death) (%)": 19.6, "Outcome": "inactive"}
{"gene": "TRIM21", "PubChem SID": "SID131518600", "two-siRNA summed score (-2 to +2)": 0, "mean protection from cisplatin (shift in death) (%)": 22.4, "Outcome": "inactive"}
{"gene": "PSMB1", "PubChem SID": "SID131522662", "two-siRNA summed score (-2 to +2)": 1, "mean protection from cisplatin (shift in death) (%)": 21.5, "Outcome": "inactive"}
{"gene": "LOC392993", "PubChem SID": "SID131521714", "two-siRNA summed score (-2 to +2)": 1, "mean protection from cisplatin (shift in death) (%)": 14.6, "Outcome": "inactive"}
{"gene": "DUS4L", "PubChem SID": "SID131505918", "two-siRNA summed score (-2 to +2)": 0, "mean protection from cisplatin (shift in death) (%)": -2.3, "Outcome": "inactive"}
{"gene": "TM7SF2", "PubChem SID": "SID131504063", "two-siRNA summed score (-2 to +2)": 0, "mean protection from cisplatin (shift in death) (%)": -6.6, "Outcome": "inactive"}
{"gene": "EFHD1", "PubChem SID": "SID131509009", "two-siRNA summed score (-2 to +2)": 0, "mean protection from cisplatin (shift in death) (%)": 1.7, "Outcome": "inactive"}
{"gene": "ANXA2", "PubChem SID": "SID131500645", "two-siRNA summed score (-2 to +2)": -1, "mean protection from cisplatin (shift in death) (%)": -18.6, "Outcome": "inactive"}
{"gene": "LOC440253", "PubChem SID": "SID131522108", "two-siRNA summed score (-2 to +2)": 1, "mean protection from cisplatin (shift in death) (%)": 16.3, "Outcome": "inactive"}
